In PubChem BioAssay AID1794749 (DTP/NCI, 2022) one finds growth data, which are given here for one molecule.

This test deals with XF 498 CNS. Description: NCI-60 one-dose screen, 48 h (100 = growth as untreated, 0 = no growth, -100 = all killed). To be noted: 2.5 mM. Here is the method: Growth inhibition of the XF 498 human tumor cell line is measured as a screen for anti-cancer activity. Cells are grown in 96 well plates and exposed to the test compound for 48 hours. Compounds are tested at a single concentration, which is 10^-5 M for most compounds. The reported endpoint is percent growth (GI% or GIPRCNT), where numbers from 0 - 100% represent growth inhibition, and numbers from -100% - 0 represent cell death. For example, a value of 40 represents 60% growth inhibition. A value of 0 means no net growth occurred over the course of the experiment. A value of -40 indicates 40% of cells at the beginning of the experiment died by the end of the experiment. A value of -100 means all cells are dead at the end of the experiment.
NCI-60 Human Tumor Cell Lines Screen was performed using the standard one-dose NCI protocol, which is described in more detail at https://dtp.cancer.gov/discovery_development/nci-60/default.htm.
Compounds with GIPRCNT values below 10 were considered active. Activity score was based on GIPRCNT using the following formula: […]
Score is 0 for GIPRCNT values of 100 or above, 50 for GIPRCNT values of 0, and 100 for GIPRCNT values of -100.

SMILES strings stand for the structures. Values joined by “and” are separate entries in the source; they are usually repeats but may differ in a detail not shown here. Equal values may be shown once. The source gives many values for each of these; only a part stands here.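 The endpoint reported here, percent growth, reads 100 for growth as untreated, 0 for no net growth and -100 for all cells dead.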

For `O=c1[nH]cc(F)c(=O)[nH]1`, the growth is -5.84% and -10.1% and -40.7%.
